In the supplement of paper PMC5949888:
± gives the standard deviation of the averaged measurements. Most values lie at the floor of the assay. Slopes are relative: functional sequences can read slightly below zero.

System: Saccharomyces cerevisiae PS128 hsf1 delta, HSF1(1-493) fusion
Experiment: growth estimate (transactivation domain function in HSF1 fusion, heat-shock survival) (a.u. (slope of normalised read count over time)); higher = stronger growth at 37°C, i.e. more transactivation activity
Settings: library: random library

Row | Substance | growth estimate
1 | CRPVLFFGHIFKYDVDAKLR | < -0.25
2 | SHHLYKVNARDTWLAISTKW | < -0.25
3 | FELRC | < -0.25
4 | TADVFDPGSGDLKLQLARYA | < -0.25
5 | ESENMPLASFWLWYFPRVPY | < -0.25
6 | RDPL | < -0.25
7 | HHIFMTAPGTNNGRCAYRCI | < -0.25
8 | RETTQRHLIF | < -0.25
9 | VRLAVPEPHTVLRVPYRELG | < -0.25
10 | GVRV | -0.204 ± 0.065
11 | STRTSCVPDQHRTPMFMSGI | < -0.25
12 | ELLTVRSG | < -0.25
13 | PQSTCC | < -0.25
14 | QASEIEYGGLRG | < -0.25
15 | RPMWVRVAMSLHCFYASQID | < -0.25
16 | RATYMVVAGWSAIAGLNGTL | < -0.25
17 | FHCTHRLRSASGEVTPHDER | < -0.25
18 | DLKIERKP | < -0.25
19 | MYFQAGVCSQGISPDMKTTK | < -0.25
20 | VQAYRRPIAGRTPHENRCS | < -0.25
21 | GMENGYVDM | < -0.25
22 | YTTGWGLPSKRPMGQQLTRD | -0.231
23 | CNLQRGLPITSAPLNVAPVA | < -0.25
24 | SSF | < -0.25
25 | WTHTKTTHYRLHPLGLDCTE | < -0.25

Taken from above:
CRPVLFFGHIFKYDVDAKLR – growth estimate: < -0.25
SSF – growth estimate: < -0.25
PQSTCC – growth estimate: < -0.25
SHHLYKVNARDTWLAISTKW – growth estimate: < -0.25
WTHTKTTHYRLHPLGLDCTE – growth estimate: < -0.25
TADVFDPGSGDLKLQLARYA – growth estimate: < -0.25
HHIFMTAPGTNNGRCAYRCI – growth estimate: < -0.25

Remaining list, next part.

Row | Substance | growth estimate
26 | KLL | -0.189 ± 0.087
27 | IQLGPNRTMYYRDLQQGKVT | < -0.25
28 | TRKVKQGVTRII | < -0.25
29 | SCDWAVKTACIPGAS | < -0.25
30 | FTWTQVIVHSAGRRLPGEKT | < -0.25
31 | HWH | < -0.25
32 | RMQAPKVLVKMRLGPGQKVS | < -0.25
33 | SMRAVVTT | < -0.25
34 | VCH | < -0.25
35 | SMVSTV | < -0.25
36 | ILAILKSYSVRDYVLRSGCG | < -0.25
37 | VKTWDLVSRQIVNLIIVNGN | < -0.25
38 | FRVC | < -0.25
39 | VETSRNVKDNGYRFTRRCMA | < -0.25
40 | RVHWVFRNFCRVGRLNGPLG | < -0.25
41 | EVGEVYGYREALWLPDRTGR | < -0.25
42 | PILLQ | < -0.25
43 | LRCRTYVARPRKSYFGRRVR | < -0.25
44 | SRLC | < -0.25
45 | RWSVFRLSRVNLSRRYESVD | < -0.25
46 | LLLRKCANSTSQVRGLMRNG | < -0.25
47 | KEWGTRDWT | < -0.25
48 | GNPSAVDKRGFEAPLFVRIG | < -0.25
49 | GLSDKKKRSQASKVWGTADS | < -0.25
50 | VDAL | < -0.25

Row | Substance | growth estimate
51 | RLVG | < -0.25
52 | VANDIDIQYN | < -0.25
53 | APQRCPAIALVTAA | < -0.25
54 | RSAGAELFPSNLEACRV | < -0.25
55 | CELVSTI | < -0.25
56 | SERQRTGARG | < -0.25
57 | RTSAFALKGSPPFLMY | < -0.25
58 | ICPGIGGGGSRQNRVNVMAS | < -0.25
59 | TVGGGA | < -0.25
60 | RSVMVF | < -0.25
61 | FGWIPASY | < -0.25
62 | PVVEWLAIKQAAGCSGCCAM | < -0.25
63 | GQIL | < -0.25
64 | FSEGFL | < -0.25
65 | RIGVSRRLMPAHKSGSASEG | < -0.25
66 | GKCEMNRAKPRCWLFRNDQG | < -0.25
67 | VVDHSTRLAPEFEVPAMPRA | < -0.25
68 | ERLGCCGS | < -0.25
69 | TYTPWADKIILVNLSSPPLE | < -0.25
70 | SVLQPRAADVNGGSARSRRT | < -0.25
71 | IGGKCDRYPGLLPGGCHYRR | -0.246
72 | PVLGWNLARGSRKGPVGRRV | < -0.25
73 | RQGGDGSQASCGVEPSRILT | < -0.25
74 | HQLSWHRSVDTKGGFTVMRS | < -0.25
75 | RRSARGTAVGRGADSHCCHL | < -0.25

Row | Substance | growth estimate
76 | HTPRCD | < -0.25
77 | RWSGRTSK | < -0.25
78 | EETRPQSCGTMPSGKRYSGD | < -0.25
79 | QESNAGACACKIHMYTSRFR | < -0.25
80 | RIDDILFSLWVVFAYR | < -0.25
81 | QECP | < -0.25
82 | KSRW | < -0.25
83 | REFRPLLAGWCMLGGSIELV | < -0.25
84 | GSGGNKTGSNRRPAAAAHIR | < -0.25
85 | PDFYRRWALEIANQLTNVA | < -0.25
86 | SQGGDSLADVRPVPTSRAPV | < -0.25
87 | EKNFRDLSERVARSDALLSG | < -0.25
88 | SVCVNKGIAIFRDVTSSDRT | -0.248
89 | ARW | < -0.25
90 | FRTGSLQQG | < -0.25
91 | VFLCRQVRIDWTRPSRGRII | < -0.25
92 | LIEVECLVICSSTCWLGRYC | < -0.25
93 | VITLR | < -0.25
94 | TKLTPLEGRWPIFKMFQPFP | < -0.25
95 | ASSSK | < -0.25
96 | SVWNSQSFVSKPTCKMGAT | < -0.25
97 | SWMSGIGF | < -0.25
98 | ITASPVLGYGPIQRCLSCGQ | < -0.25
99 | EGVRLLDRRVVDARFRAYHT | < -0.25
100 | LHDVLIRPLWAPIL | < -0.25

Row | Substance | growth estimate
101 | VSQDAKR | < -0.25
102 | LSSKKVTESIALRSVWGQAN | < -0.25
103 | RAVGYDHATVRRTIRWS | < -0.25
104 | RAASRTGQSRSSQQLAPGYA | < -0.25
105 | LKVASLV | < -0.25
106 | LGDKRILLRWCARADEKNRE | < -0.25
107 | WIAR | < -0.25
108 | CYIKSSAHEGLKQVMCGRLS | < -0.25
109 | HGRARRRTLDGRVRPSSVS | < -0.25
110 | IRWGLDPDTAVTRCIDS | -0.25
111 | YSYSAQAGLALMRVASVSVR | < -0.25
112 | KALVSRQ | < -0.25
113 | KGRWRWVCSTRIPCLRWVPW | < -0.25
114 | LYSVIPVNPRAGN | < -0.25
115 | SRAQMQRTSLMMRVGTFGIL | < -0.25
116 | LFRHTAYFS | < -0.25
117 | SEFRL | < -0.25
118 | LGVDVHTKVGLSRESGRLMR | < -0.25
119 | ASLYR | < -0.25
120 | CQGDWKLSQVRTLPGKRWNF | < -0.25
121 | RLPHNHCT | < -0.25
122 | EHALYKS | < -0.25
123 | RYSINITTALANGRNVSLAG | < -0.25
124 | KTVRRGHRKEVTQSHTET | < -0.25
125 | NNSRSCRDFMRITLI | < -0.25

Row | Substance | growth estimate
126 | IPAEAARVRWPQKPLPMIGS | -0.246
127 | VFSLIVPSR | < -0.25
128 | AIVAPAAQVKYTP | < -0.25
129 | ITTLLRVTKGGLGTESV | < -0.25
130 | GFIAMPRLS | < -0.25
131 | SGRGGRGSWSSSRTDAPGLV | < -0.25
132 | LQGVYQYLLLNALRGEGRPG | < -0.25
133 | GPNRPHAW | < -0.25
134 | RSMFRRAHFRV | < -0.25
135 | LPVTRKGRISLYLNLRPRRD | < -0.25
136 | TTARKARFVSYDAIADFMWW | < -0.25
137 | NPANAGRTYQNVKTPA | < -0.25
138 | PLKWNAPFGLGFLFRSIIRV | < -0.25
139 | EVQGRAN | < -0.25
140 | IITVLRFASVPEVDPSCQPW | < -0.25
141 | RQKCQEMENPANNGSSPIQA | < -0.25
142 | RDSVRVYWDGRAGE | < -0.25
143 | LVLFEGSALSGECLRLLIRG | < -0.25
144 | GAIGSMQANAAFGVALYSPL | < -0.25
145 | AGSWNLVMLCSGANPNYFLG | < -0.25
